Source: PMC7819943, “Rice protein-binding microarrays: a tool to detect cis-acting elements near promoter regions in rice”
The list shows a part of the results.

Sequences of proteins named here, by UniProt entry; tags and fusion partners are left off.
UniProt Q0JBA9, entry or part of it: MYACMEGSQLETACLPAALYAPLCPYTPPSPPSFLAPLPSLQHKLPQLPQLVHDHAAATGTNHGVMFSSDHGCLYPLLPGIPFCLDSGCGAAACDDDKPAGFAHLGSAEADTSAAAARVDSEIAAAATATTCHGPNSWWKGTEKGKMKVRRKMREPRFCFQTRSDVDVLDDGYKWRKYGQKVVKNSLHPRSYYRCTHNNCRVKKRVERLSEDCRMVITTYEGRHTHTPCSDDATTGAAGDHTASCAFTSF

These sequences were tested against OsWRKY34 (Oryza sativa, UniProt Q0JBA9 1-250) (assay: protein-binding microarray (RPBM); PBS, 2% BSA, 51.3 ng/ul salmon testes DNA, 50 uM zinc acetate, 200 nM TF, 25 C, 1 h; high values mean tight binding). Settings: protein: recombinant; tags: N-terminal polyhistidine and DsRed monomer fusion (pET32a); label: CyDye5-dUTP incorporated in the synthesized complementary strand; 3' TTTTT single-stranded linker to array surface; dsDNA, one strand shown.
Procedure, shortened: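 Using Ni–NTA, transcription factors fused N-terminally to polyhistidine and DsRed were purified after expression in E. coli BL21-CodonPlus. These were incubated at 200 nM with a blocked, double-stranded custom Agilent array for 1 h at 25 °C in a buffer containing 50 µM zinc acetate, and the array was washed. The binding signal is per-feature fluorescence intensity (arbitrary units) on an Axon 4000B scanner.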
With “CCGTCAACTGTATTGGGTCAACGAAACGGTGGTTGGACCGCGGAGTCACCTAGTGCAG” the binding signal was 10400 fluorescence intensity (a.u.). In the case of “GTGTGGTGTTACGTGCGTAGTGGTGTGTATATATATCTGTCGGAGTCACCTAGTGCAG”, the binding signal is reported as 9000 fluorescence intensity (a.u.). “AGTAACTCTACAACCACTTCGCGCACTAATTATCTCTTTCCGGAGTCACCTAGTGCAG” was tested, and the binding signal was 8680 fluorescence intensity (a.u.). “CCCTCCCTCGCTTGACTTCTCTCTCCGCGTCACTTCTCTTCGGAGTCACCTAGTGCAG” was tested, and the binding signal was 12800 fluorescence intensity (a.u.). With “TTACTTTTTAGGGTTTGTGTTTTTGCCCTTACTTTTTTCACGGAGTCACCTAGTGCAG” the binding signal was 14200 fluorescence intensity (a.u.). In the case of “CTCTGAGTCTGTCTCGCTCTCTGACCCCGCACTGCAATCCCGGAGTCACCTAGTGCAG”, the binding signal is reported as 8560 fluorescence intensity (a.u.). With “GTAGTTAGCTATACCACTCCGTTAAGCTTGCTCTAAGACTCGGAGTCACCTAGTGCAG” the binding signal was 8310 fluorescence intensity (a.u.). “TGCCAACGTTTGACTGTCCGTCTTATATGAAATTTTTTTACGGAGTCACCTAGTGCAG” was tested, and the binding signal was 8140 fluorescence intensity (a.u.). In the case of “GTTTTGACCACCGGTGACCTCCCAGCTATAACCAACCCAACGGAGTCACCTAGTGCAG”, the binding signal is reported as 10200 fluorescence intensity (a.u.). With “GCTGCGCTCACCTACCGCCGCTCGGCTACTGCGCGGACCACGGAGTCACCTAGTGCAG” the binding signal was 8180 fluorescence intensity (a.u.). For “CTCGTTGACAGCCCTACTGCCTGCCTATGTGAATTTCCATCGGAGTCACCTAGTGCAG”, the binding signal was 8310 fluorescence intensity (a.u.). With “CCCTTAAGGTAGATCATCACCACTCTCCATCATCTCATCACGGAGTCACCTAGTGCAG” the binding signal was 8520 fluorescence intensity (a.u.). “TTTCGTTACTGTTCCCCATTGGTTTTTGTCATTTTGCTGTCGGAGTCACCTAGTGCAG” was tested, and the binding signal was 10200 fluorescence intensity (a.u.). For “TGTGGATTTGTGGTGCCATGGCTTTTTCGGCTGTCAACACCGGAGTCACCTAGTGCAG”, the binding signal was 8800 fluorescence intensity (a.u.). In the case of “CTCGCGCGCCTCTCGCTTGGTTTTTGGTAGTGACCTCTCGCGGAGTCACCTAGTGCAG”, the binding signal is reported as 9080 fluorescence intensity (a.u.). For “GGGGCTTGTATTTATACCCATAGGTGTCCCCTTGTCCAAGCGGAGTCACCTAGTGCAG”, the binding signal was 9840 fluorescence intensity (a.u.). With “TTATTTCGTGGTCCCATAATGCTCACACATTACTCATAATCGGAGTCACCTAGTGCAG” the binding signal was 8950 fluorescence intensity (a.u.). With “CGATTCCCGATGCTCGCGAAGTTTCTTTTCTCCGTTTCTCCGGAGTCACCTAGTGCAG” the binding signal was 9110 fluorescence intensity (a.u.). “TCTATATCTGGTTTTGCATCCCTCAACCGTAAACCAAATACGGAGTCACCTAGTGCAG” was tested, and the binding signal was 8570 fluorescence intensity (a.u.). “TACATACACTTATTTTCGACATTGTATTCTATAATTATAGCGGAGTCACCTAGTGCAG” was tested, and the binding signal was 9800 fluorescence intensity (a.u.). “CCCGCTTCCTGCCATACATGCATTTTGGTCCTAGTAATCACGGAGTCACCTAGTGCAG” was tested, and the binding signal was 8290 fluorescence intensity (a.u.). With “GCAGAAGCAGGCAGTCCATCGATCATCTCTTCTCTTCCAGCGGAGTCACCTAGTGCAG” the binding signal was 9410 fluorescence intensity (a.u.). With “TCGAACTGATCCAACGTACCAGAATTCGCTAGTTTCTTATCGGAGTCACCTAGTGCAG” the binding signal was 8620 fluorescence intensity (a.u.). With “CAGTCCATTTTTACAAAGTTGCGGGTTGGTTCCTGAACTACGGAGTCACCTAGTGCAG” the binding signal was 8680 fluorescence intensity (a.u.). “GATTCTCCAGTTGATTTATGCTCTCTTTCACTGACCAAACCGGAGTCACCTAGTGCAG” was tested, and the binding signal was 8080 fluorescence intensity (a.u.). “ACTGGCTTTGCTATGATCTTTTGCTATCGCCCAACCGTTACGGAGTCACCTAGTGCAG” was tested, and the binding signal was 8690 fluorescence intensity (a.u.). For “TCGTGTCCTCTCTTCAGCCACACACGCGCCCACCTCGCCGCGGAGTCACCTAGTGCAG”, the binding signal was 8500 fluorescence intensity (a.u.). In the case of “TCATCACCCACCGGGCTTTCCTGACACGGCCCATTTACTACGGAGTCACCTAGTGCAG”, the binding signal is reported as 9970 fluorescence intensity (a.u.). “TGCGATTACGGCGGCTACCCTTCTTGTTCTTCATGGATGACGGAGTCACCTAGTGCAG” was tested, and the binding signal was 8590 fluorescence intensity (a.u.). For “TGTTTTATGCATGCTGCGTTATCTGCTCTTATTCAAACTCCGGAGTCACCTAGTGCAG”, the binding signal was 8650 fluorescence intensity (a.u.). “GTTTAATGGGTTGATGTGGCATGCTTACATATAGGTTTTACGGAGTCACCTAGTGCAG” was tested, and the binding signal was 10300 fluorescence intensity (a.u.). “GGTAGGGTTTGCGTGCGTGTGTTCATAGGGTGAGTGCGCGCGGAGTCACCTAGTGCAG” was tested, and the binding signal was 8680 fluorescence intensity (a.u.). With “ATCCCAATTTATGTGTGACCATTACAATGTGTTTGACAATCGGAGTCACCTAGTGCAG” the binding signal was 8360 fluorescence intensity (a.u.). For “GCCGGTCCATTCTCCGCCCTTCACCGCCTCCGTTGCCGGCCGGAGTCACCTAGTGCAG”, the binding signal was 9320 fluorescence intensity (a.u.). “ACTATTTCTCACTGGAATGTTATATACTTCTGGAATATTCCGGAGTCACCTAGTGCAG” was tested, and the binding signal was 8680 fluorescence intensity (a.u.). For “AGACACAGCACACCCACTCACTCTGCTCACTCTCCCATACCGGAGTCACCTAGTGCAG”, the binding signal was 10200 fluorescence intensity (a.u.). In the case of “TCCGTTTTTTAATAGATGACGCCGTTGACTTTTTCTCACACGGAGTCACCTAGTGCAG”, the binding signal is reported as 31700 fluorescence intensity (a.u.). In the case of “CTAGCATGGTGTTCCCCTCCATCTTTTATTCATTATCTGCCGGAGTCACCTAGTGCAG”, the binding signal is reported as 8520 fluorescence intensity (a.u.). With “ACTCCAAGACACAGTGTGTATGACAGGTGGGACCAGATATCGGAGTCACCTAGTGCAG” the binding signal was 8210 fluorescence intensity (a.u.). In the case of “TGGAGGAGGGGAGGCCGGGGATTGTTTTTATAGGGGAGGGCGGAGTCACCTAGTGCAG”, the binding signal is reported as 30500 fluorescence intensity (a.u.). “ACACCACACCACACGTCCACACCACACCACGACTCGACGGCGGAGTCACCTAGTGCAG” was tested, and the binding signal was 8780 fluorescence intensity (a.u.). With “CCTGAGCCGGCCCAGCCACCAGATGGTCTTCTTCTTCCTTCGGAGTCACCTAGTGCAG” the binding signal was 9020 fluorescence intensity (a.u.).
